According to publication PMC11203643:
No constants are given. Whether binding was seen depends on the method and setting. In cells and extracts the contact can be indirect. Some binding calls cover weakened binding; strength is not graded here. Where a sequence is shown, tags or fusion partners need not be part of it.

The chains behind the UniProt entries cited, without tags or fusion partners.
UniProt P32121: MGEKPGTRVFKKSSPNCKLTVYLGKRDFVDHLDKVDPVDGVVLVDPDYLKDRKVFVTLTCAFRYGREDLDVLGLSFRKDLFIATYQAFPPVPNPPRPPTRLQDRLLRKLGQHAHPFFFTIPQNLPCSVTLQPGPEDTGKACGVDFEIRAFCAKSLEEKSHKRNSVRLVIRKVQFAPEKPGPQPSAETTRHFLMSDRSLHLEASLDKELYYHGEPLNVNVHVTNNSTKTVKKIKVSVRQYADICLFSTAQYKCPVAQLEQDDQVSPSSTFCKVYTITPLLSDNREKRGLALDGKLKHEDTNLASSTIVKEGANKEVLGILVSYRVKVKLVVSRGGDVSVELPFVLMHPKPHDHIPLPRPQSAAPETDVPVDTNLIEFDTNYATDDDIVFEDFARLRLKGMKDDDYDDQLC

Target: T1, LPA3 receptor fused at the carboxyl terminus with eGFP (LPA3–eGFP construct) (human) (UniProt Q9UBY5)
T1 sequence: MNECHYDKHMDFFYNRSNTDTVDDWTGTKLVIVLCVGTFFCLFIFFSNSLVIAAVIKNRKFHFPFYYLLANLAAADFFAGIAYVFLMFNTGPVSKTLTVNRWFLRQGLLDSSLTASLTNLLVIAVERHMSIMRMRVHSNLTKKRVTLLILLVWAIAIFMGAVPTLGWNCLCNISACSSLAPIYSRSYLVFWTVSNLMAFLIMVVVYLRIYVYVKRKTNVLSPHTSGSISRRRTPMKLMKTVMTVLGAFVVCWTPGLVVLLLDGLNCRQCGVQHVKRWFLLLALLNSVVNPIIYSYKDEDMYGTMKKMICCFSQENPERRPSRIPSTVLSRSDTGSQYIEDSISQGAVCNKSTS
Experiment: FRET or BRET; FRET between LPA3–eGFP (donor, excited at 488 nm) and β-arrestin 2–mCherry (emission at 610 nm) in Flp-In TREx HEK293 cells, confocal microscopy; cells challenged with 1 µM LPA or 1 µM PMA for up to 60 min; FRET index normalised to time 0 as 100%

binding: binds
Substance: β-arrestin 2 mCherry-tagged (from UniProt P32121 1-409)
